Consider 1 substance from patent US20200354430A1 (OPKO BIOLOGICS, published 2020).

Amino acid sequences for entries named in this document (tags omitted). Residues count along the entry.
UniProt P08709, residues 61-466: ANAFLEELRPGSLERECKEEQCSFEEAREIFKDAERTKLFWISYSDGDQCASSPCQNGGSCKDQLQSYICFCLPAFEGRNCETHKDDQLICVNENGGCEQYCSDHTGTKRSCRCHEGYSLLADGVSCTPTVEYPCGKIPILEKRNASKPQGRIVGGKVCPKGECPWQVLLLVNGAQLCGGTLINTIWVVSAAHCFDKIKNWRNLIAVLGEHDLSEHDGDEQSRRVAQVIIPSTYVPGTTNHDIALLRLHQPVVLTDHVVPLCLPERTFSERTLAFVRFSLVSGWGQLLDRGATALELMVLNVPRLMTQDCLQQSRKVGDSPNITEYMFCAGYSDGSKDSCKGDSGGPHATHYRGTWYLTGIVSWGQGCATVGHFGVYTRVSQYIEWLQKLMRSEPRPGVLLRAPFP
UniProt P00742, residues 41-488: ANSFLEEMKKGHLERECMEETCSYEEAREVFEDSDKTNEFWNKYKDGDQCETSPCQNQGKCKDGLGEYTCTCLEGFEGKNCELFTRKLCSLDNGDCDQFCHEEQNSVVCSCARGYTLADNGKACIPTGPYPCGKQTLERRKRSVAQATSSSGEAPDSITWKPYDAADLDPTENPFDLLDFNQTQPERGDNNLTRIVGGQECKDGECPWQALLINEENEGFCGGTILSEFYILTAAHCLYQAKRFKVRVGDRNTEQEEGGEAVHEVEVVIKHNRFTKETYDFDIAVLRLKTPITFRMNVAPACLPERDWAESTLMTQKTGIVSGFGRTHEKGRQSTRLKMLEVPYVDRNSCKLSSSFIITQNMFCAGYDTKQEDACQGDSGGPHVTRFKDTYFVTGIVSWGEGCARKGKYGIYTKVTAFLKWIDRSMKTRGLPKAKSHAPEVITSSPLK

No constants are given. Whether binding was seen depends on the method and setting. Some entries that bind do so weakly or less than the wild type.

Experiment [1] has as its target MOD-5000/TF complex (UniProt P08709). The experiment in a line: rate of FX activation as a function of FX concentration.
The target in experiment [2] is MOD-5000 (commercial recombinant hFVIIa, NovoSeven) (UniProt P08709). The experiment in a line: rate of FX activation on lipid vesicles without TF as a function of FX concentration.

Regarding “Factor X (FX) (from UniProt P00742 41-488) (enzyme)”, the binding result in experiment [1] and in experiment [2] was “binds” throughout.
